Results are given in words; binding and its absence hold for the method and conditions named. For some assays here: Binding seen in cells or lysates may run through a third protein. Some binding calls cover weakened binding; strength is not graded here.

The chains behind the UniProt entries cited, without tags or fusion partners. Residues count along the entry.
UniProt O95373: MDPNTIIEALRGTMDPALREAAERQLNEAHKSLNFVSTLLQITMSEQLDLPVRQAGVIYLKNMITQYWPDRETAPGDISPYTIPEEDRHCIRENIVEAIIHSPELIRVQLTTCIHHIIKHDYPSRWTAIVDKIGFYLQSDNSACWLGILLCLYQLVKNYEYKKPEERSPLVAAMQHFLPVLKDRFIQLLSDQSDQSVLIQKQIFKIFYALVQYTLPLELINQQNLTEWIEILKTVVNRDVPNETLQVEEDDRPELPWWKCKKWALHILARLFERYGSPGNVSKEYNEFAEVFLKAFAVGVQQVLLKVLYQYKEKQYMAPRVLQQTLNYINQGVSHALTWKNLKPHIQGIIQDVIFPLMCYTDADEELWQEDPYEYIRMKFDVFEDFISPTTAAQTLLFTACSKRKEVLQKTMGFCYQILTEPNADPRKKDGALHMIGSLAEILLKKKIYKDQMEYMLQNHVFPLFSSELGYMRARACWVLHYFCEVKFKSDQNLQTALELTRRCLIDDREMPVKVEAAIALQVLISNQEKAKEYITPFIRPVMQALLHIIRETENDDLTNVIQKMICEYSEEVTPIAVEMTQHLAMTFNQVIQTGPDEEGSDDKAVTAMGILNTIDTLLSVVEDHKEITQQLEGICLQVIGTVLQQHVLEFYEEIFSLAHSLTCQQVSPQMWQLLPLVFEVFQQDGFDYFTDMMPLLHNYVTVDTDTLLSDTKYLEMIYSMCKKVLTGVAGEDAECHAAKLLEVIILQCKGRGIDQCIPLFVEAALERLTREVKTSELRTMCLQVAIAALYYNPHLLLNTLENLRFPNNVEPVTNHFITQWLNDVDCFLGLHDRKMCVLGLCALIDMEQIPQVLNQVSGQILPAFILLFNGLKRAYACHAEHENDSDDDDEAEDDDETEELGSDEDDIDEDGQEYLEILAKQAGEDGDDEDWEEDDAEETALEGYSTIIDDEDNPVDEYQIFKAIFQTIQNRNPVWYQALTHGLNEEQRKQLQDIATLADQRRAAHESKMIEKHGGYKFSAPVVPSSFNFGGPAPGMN
UniProt P49790, residues 895-1475: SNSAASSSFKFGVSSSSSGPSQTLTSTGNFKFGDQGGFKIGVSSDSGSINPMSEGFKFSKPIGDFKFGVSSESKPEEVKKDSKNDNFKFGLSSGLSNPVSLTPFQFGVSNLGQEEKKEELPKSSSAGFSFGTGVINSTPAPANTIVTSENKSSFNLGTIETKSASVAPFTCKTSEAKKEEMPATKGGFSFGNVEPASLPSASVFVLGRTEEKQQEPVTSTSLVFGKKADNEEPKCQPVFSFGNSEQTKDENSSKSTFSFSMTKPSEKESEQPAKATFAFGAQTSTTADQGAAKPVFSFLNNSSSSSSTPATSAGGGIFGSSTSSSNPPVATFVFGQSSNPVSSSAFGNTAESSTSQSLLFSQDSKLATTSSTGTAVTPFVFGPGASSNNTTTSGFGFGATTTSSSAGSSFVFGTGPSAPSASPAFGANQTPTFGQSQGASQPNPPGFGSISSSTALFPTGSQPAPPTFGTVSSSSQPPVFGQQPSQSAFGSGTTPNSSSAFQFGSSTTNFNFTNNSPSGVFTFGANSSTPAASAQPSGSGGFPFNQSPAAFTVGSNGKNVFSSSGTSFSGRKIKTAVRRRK

Assay [1] addresses APA-GFP-ERK2 (UniProt P63086). Description: immunoprecipitated ERK2 constructs incubated with 0.5 µg recombinant His-Nup153c (FIG. 19C).
Assay [2] has as its target APA-GFP-ERK2 (UniProt P63086). The experiment in a line: immunoprecipitated ERK2 constructs incubated with 0.5 µg recombinant His-Nup153c, Western blot with anti His Ab.
Assay [3] has as its target MEK1 (UniProt Q02750). Description: interaction in transfected cells (method not described; FIG. 3 cited).
Assay [4] addresses importin-7 (mammalian (e.g. human)) (UniProt O95373). Description: co-immunoprecipitation with anti GFP Ab from HeLa cells, Western blot for importin-7. For orientation: In western blotting, separated proteins are transferred to a membrane and probed.
The target is the same in assay [5]. The experiment in a line: co-immunoprecipitation with anti GFP Ab from HeLa cells, EGF 50 ng/ml 10 min (FIG. 19A).

Regarding “recombinant His-Nup153c (from UniProt P49790 895-1475)”, the binding entry in assay [1] and in assay [2] was “binds” each time.

On to “GFP-ERK244-6A (from UniProt P63086 1-358) (enzyme)”, for which the binding entry in assay [3] is “binds”.

B1: EPE-GFP-ERK2 (enzyme, UniProt P63086 1-358, looked up)
chain: MAAAAAAGPEMVRGQVFDVGPRYTNLSYIGEGAYGMVCSAYDNLNKVRVAIKKISPFEHQTYCQRTLREIKILLRFRHENIIGINDIIRAPTIEQMKDVYIVQDLMETDLYKLLKTQHLSNDHICYFLYQILRGLKYIHSANVLHRDLKPSNLLLNTTCDLKICDFGLARVADPDHDHTGFLTEYVATRWYRAPEIMLNSKGYTKSIDIWSVGCILAEMLSNRPIFPGKHYLDQLNHILGILGEPEQEDLNCIINLKARNYLLSLPHKNKVPWNRLFPNADSKALDLLDKMLTFNPHKRIEVEQALAHPYLEQYYDPSDEPIAEAPFKFDMELDDLPKEKLKELIFEETARFQPGYRS
notes: also called GFP-ERK244/6E; ERK-EE; not shown: GFP encoded by pEGFP C1 (Clontech)
On to B1, for which the binding result in assay [4] and in assay [5] was “binds” each time.

Source of the values: US20100099627A1 (YEDA RESEARCH AND DEVELOPMENT, published 2010).
